Assay results published in the supplement of paper PMC6078165.
Values are relative to the signal before dosing, not to a vehicle control; the signal also falls without drug.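 Fibroblast labels denote human fibroblasts, mainly primary ones from uterus (C12385, HUF), lung (H6013), bone (Hs27A), adrenal (HADF) and skin (WS1), plus mammary HMF and breast cancer-associated Hs343T. Cancer cells are basal-like or mesenchymal-like triple-negative breast cancer lines. A hit is a response shift exceeding 3x replicate standard deviation. The tissue of the other fibroblasts is not given here.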

Test system: Hs578T
Assay: relative JC-1 red fluorescence (viability) vs pre-drug, coculture with fibroblast (fraction); higher = more viable cancer cells
Conditions: 10 µM
Experimental: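 JC-1 labelled TNBC cells cocultured 1:1 (1,500 cells each) with CellTrace Violet stained primary or stromal fibroblasts in 384-well plates in FluoroBrite medium, treated with one of 42 anticancer drugs at 0.1, 1, 10 or 100 uM. JC-1 red fluorescence (mitochondrial integrity in cancer cells only) was read by plate reader every 8 h for 72 h. Values are normalised to each well's pre-drug value. The stock of one drug was tenfold lower, so its dose labels may be too high.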

CC(=O)c1c(C)c2cnc(Nc3ccc(N4CCNCC4)cn3)nc2n(C2CCCC2)c1=O [Palbociclib]
Conditions | relative JC-1 red fluorescence
8 h | 0.938
16 h | 0.91
24 h | 0.929
32 h | 0.919
40 h | 0.883
48 h | 0.8649
56 h | 0.867
64 h | 0.819
72 h | 0.809

relative JC-1 red fluorescence
Conditions | 8 h | 16 h | 24 h | 32 h | 40 h | 48 h | 56 h | 64 h | 72 h
coculture fibroblast: C12385 | 0.8849 | 0.85174 | 0.8277 | 0.824 | 0.801 | 0.788 | 0.78 | 0.771 | 0.762
coculture fibroblast: H6013 | 0.88 | 0.889 | 0.8031 | 0.834 | 0.901 | 0.836 | 0.798 | 0.92 | 0.821
coculture fibroblast: H6019 | 0.835 | 0.833 | 0.855 | 0.8255 | 0.8287 | 0.821 | 0.792 | 0.774 | 0.758
coculture fibroblast: H6076 | 0.967 | 0.818 | 0.825 | 0.888 | 0.874 | 0.934 | 0.913 | 0.914 | 0.904
coculture fibroblast: H6231 | 0.932 | 0.792 | 0.684 | 0.663 | 0.615 | 0.597 | 0.557 | 0.537 | 0.516
coculture fibroblast: HADF | 0.865 | 0.73 | 0.727 | 0.777 | 0.855 | 0.735 | 0.828 | 0.7735 | 0.805
coculture fibroblast: HCFa | 0.866 | 0.948 | 0.839 | 0.937 | 0.901 | 0.889 | 0.805 | 0.787 | 0.907
coculture fibroblast: HCPF | 0.89 | 0.9377 | 0.896 | 0.913 | 0.877 | 0.873 | 0.951 | 0.933 | 0.897
coculture fibroblast: HHSteC | 0.806 | 0.713 | 0.749 | 0.827 | 0.819 | 0.771 | 0.752 | 0.917 | 0.979
coculture fibroblast: HMF | 0.923 | 0.974 | 0.974 | 0.981 | 0.948 | 0.9454 | 0.916 | 0.889 | 0.878
coculture fibroblast: HPFa | 0.812 | 0.842 | 0.794 | 0.765 | 0.872 | 0.898 | 0.881 | 0.894 | 0.874
coculture fibroblast: HUF | 0.932 | 0.887 | 0.8903 | 0.841 | 0.8104 | 0.7874 | 0.7785 | 0.753 | 0.732
coculture fibroblast: Hs27A | 0.868 | 0.791 | 0.782 | 0.7721 | 0.8351 | 0.857 | 0.776 | 0.837 | 0.833
coculture fibroblast: Hs343T | 0.9595 | 0.921 | 0.918 | 0.935 | 0.904 | 0.923 | 0.913 | 0.897 | 0.904
coculture fibroblast: WS1 | 0.886 | 0.9098 | 0.8921 | 0.90664 | 0.905 | 0.90751 | 0.8875 | 0.8647 | 0.839
